# Laboratory results as given in patent US8377891 (dated 2013).
# Square brackets hold non-standard residues; d marks the D form. Ends that are not written are not given here.
# Columns and labels:
# [1] = general procedure: peptide synthesis; H-Cys(Trt)-2-ChloroTrityl resin (0.6 mmoles/gm); HBTU/NMM; settings: acetate
# [2] = general procedure: peptide synthesis; H-Cys(Trt)-2-Chlorotrityl resin; HBTU/NMM; settings: whole synthesis, scale 10 mmole, acetate
substance,measurement,setting,value
Boc-D-Phe-Cys(Trt)-Phe-D-Trp-Lys(Boc)-Thr(OBut)-Cys(Trt)-OH,crude HPLC purity,"[1]; whole synthesis, analytical RP-HPLC, scale of the general procedure 10 mmole",88.64%
same,crude yield,"[1]; whole synthesis, scale of the general procedure 10 mmole",>95%
D-Phe-Cys-Phe-D-Trp-Lys-Thr-Cys-Thr-OL,step yield,[1]; late stage modification step,>95%
[dF]CF[dW]KTC-OH (cysteine pairing not given here),oxidative folding yield,[1]; oxidative folding step,>95%
octreotide,oxidative folding yield,"[1]; oxidative folding step, run 1",(45%)
same,oxidative folding yield,"[1]; oxidative folding step, run 2",>95%
same,crude HPLC purity,"[1]; oxidative folding step, analytical RP-HPLC, run 1",70.5%
same,crude HPLC purity,"[1]; oxidative folding step, analytical RP-HPLC, run 2",44.25%
same,step yield,[1]; purification step,70% or above
same,final HPLC purity,"[1]; purification step, analytical RP-HPLC",>99%
Boc-D-Phe-Cys(Trt)-Phe-D-Trp-Lys(Boc)-Thr(OBut)-Cys(Trt)-2-Chlorotrityl resin,crude yield,[2],>90%
Boc-D-Phe-Cys(Trt)-Phe-D-Trp-Lys(Boc)-Thr(OBut)-Cys(Trt)-Thr-OL,step yield,[1]; coupling step,>95%
same,crude HPLC purity,"[1]; coupling step, analytical RP-HPLC",81.38%
